Test results reported in publication PMC12215978, “CryoEM structure of the SLFN14 endoribonuclease reveals insight into RNA binding and cleavage” (Nature Communications, 2025).
Results are given in words; binding and its absence hold for the method and conditions named. Some binding calls cover weakened binding; strength is not graded here. Where a sequence is shown, tags or fusion partners need not be part of it.

Molecular target: full-length recombinant human SLFN14 (residues 1–912), C-terminally Flag-tagged (human) (UniProt P0C7P3)
Assay: cryo-EM structure; SLFN14 0.6 mg/mL with and without brewer's yeast tRNA (1:1 molar ratio) in 20 mM Tris pH 7.4, 150 mM NaCl, 1 mM MgCl2, 1 mM TCEP; three datasets merged; RNA bound in the cleft; both purified

B1: full-length recombinant human SLFN14 (residues 1–912), C-terminally Flag-tagged (enzyme, UniProt P0C7P3 1-912, looked up)
chain: MESLKTDTEMPYPEVIVDVGRVIFGEENRKKMTNSCLKRSENSRIIRAICALLNSGGGVIKAEIDDKTYSYQCHGLGQDLETSFQKLLPSGSQKYLDYMQQGHNLLIFVKSWSPDVFSLPLRICSLRSNLYRRDVTSAINLSASSALELLREKGFRAQRGRPRVKKLHPQQVLNRCIQEEEDMRILASEFFKKDKLMYKEKLNFTESTHVEFKRFTTKKVIPRIKEMLPHYVSAFANTQGGYVLIGVDDKSKEVVGCKWEKVNPDLLKKEIENCIEKLPTFHFCCEKPKVNFTTKILNVYQKDVLDGYVCVIQVEPFCCVVFAEAPDSWIMKDNSVTRLTAEQWVVMMLDTQSAPPSLVTDYNSCLISSASSARKSPGYPIKVHKFKEALQRHLFPVTQEEVQFKPESLCKKLFSDHKELEGLMKTLIHPCSQGIVIFSRSWAGDVGFRKEQNVLCDALLIAVNSPVVLYTILIDPNWPGGLEYARNTAHQLKQKLQTVGGYTGKVCIIPRLIHLSSTQSRPGEIPLRYPRSYRLADEEEMEDLLQALVVVSLSSRSLLSDQMGCEFFNLLIMEQSQLLSESLQKTRELFIYCFPGVRKTALAIKIMEKIKDLFHCKPKEILYVCESDSLKDFVTQQTTCQAVTRKTFMQGEFLKIKHIVMDETENFCSKYGNWYMKAKNITHPKAKGTGSENLHHGILWLFLDPFQIHHADVNGLPPPSAQFPRKTITSGIHCALEIAKVMKEEMKRIKENPPSNMSPDTLALFSETAYEEATCAQALPGVCETKTNLTTEQIANYVARKCHSLFQCGYLPKDIAILCRRGEDRGRYRLALLKAMELIETHRPSEVVFSPATGVWGSHIVLDSIQQFSGLERTVVFGLSPECDQSEEFHKLCFASRAIKHLYLLYEKRAAY
notes: human SLFN14, full length, residues 1-912; The sample keeps co-purified cellular nucleic acid, and the structure has RNA in the cleft; also called SLFN14 wild-type (WT); Schlafen 14; not shown: Flag, C-terminal, kept
For B1, the binding was “binds”.
